The values below come from US6060481A, “Method for improving insulin sensitivity using an adenosine receptor antagonist” (priority 1999, dated 2000).

A short description of the data set: Body weight of lean and obese Zucker rats after one week of treatment. It is filed as in vivo. Conditions: for Body weight: 12 mg/kg every 12 h for 1 wk.

For `CCCn1c(=O)c2[nH]c(-c3ccc(C=CC(=O)O)cc3)nc2n(CCC)c1=O` [BWA1433, 1,3-dipropyl-8-(p-acrylic)phenylxanthine], the Body weight worked out at 182 ± 5 g (lean rats) and 260 ± 11 g (obese rats). Moreover, the “Change in body weight” value (one week treatment, either lean or obese animals) is given as “did not produce significant changes”.
